Results on 1 molecule are retold here after publication PMC6966542.

Results are given in words; binding and its absence hold for the method and conditions named. In cells and extracts the contact can be indirect. Some entries that bind do so weakly or less than the wild type.

The experiment deals with Myc-6His tagged wild type (WT) calreticulin (CALR) (human) (UniProt P27797). Put plainly: co-IP; HEK293T cotransfected with Myc-6His tagged WT, del52 or ins5 CALR and FLAG-tagged EDEM3 or HA-tagged EDEM1; lysis in 20 mM Tris-HCl pH 7.5, 150 mM NaCl, 1.5% CHAPS, protease inhibitors; anti-Myc antibody overnight, protein G magnetic beads; western blot for EDEM3 or calnexin. (In general: Immunoblotting shows a protein as a band on a membrane.)

B1: Calnexin (CANX) (protein, UniProt P27824 21-592)
chain: HDGHDDDVIDIEDDLDDVIEEVEDSKPDTTAPPSSPKVTYKAPVPTGEVYFADSFDRGTLSGWILSKAKKDDTDDEIAKYDGKWEVEEMKESKLPGDKGLVLMSRAKHHAISAKLNKPFLFDTKPLIVQYEVNFQNGIECGGAYVKLLSKTPELNLDQFHDKTPYTIMFGPDKCGEDYKLHFIFRHKNPKTGIYEEKHAKRPDADLKTYFTDKKTHLYTLILNPDNSFEILVDQSVVNSGNLLNDMTPPVNPSREIEDPEDRKPEDWDERPKIPDPEAVKPDDWDEDAPAKIPDEEATKPEGWLDDEPEYVPDPDAEKPEDWDEDMDGEWEAPQIANPRCESAPGCGVWQRPVIDNPNYKGKWKPPMIDNPSYQGIWKPRKIPNPDFFEDLEPFRMTPFSAIGLELWSMTSDIFFDNFIICADRRIVDDWANDGWGLKKAADGAAEPGVVGQMIEAAEERPWLWVVYILTVALPVFLVILFCCSGKKQTSGMEYKKTDAPQPDVKEEEEEKEEEKDKGDEEEEGEEKLEEKQKSDAEEDGGTVSQEEEDRKPKAEEDEILNRSPRNRKPRRE
With B1, the binding result is “binds”.
